Values from PubChem BioAssay AID652272 (Drosophila RNAi Screening Center, 2013)

- Purpose: 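Finding fly genes that regulate Hedgehog signal transduction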 (primary screen)
- Cell system: Drosophila clone 8 (Cl8) cells
- Reagent: long dsRNA against Drosophila genes
- Read-out: 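Firefly light from a Hedgehog-responsive ptc promoter reporter and Renilla reference light, both read on a plate reader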
- Scale: firefly Hh reporter signal: higher = more ptc reporter light; Renilla reference signal: higher = more Renilla control light
- Call rule: 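Called a hit if the two-replicate mean z-score lies below -2 or above +3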
- Calls: active = hit: reporter lowered or raised; inactive = not a hit
In all, the deposit lists about 21,000 reagents; below is an unselected part of those with a known target gene and a result. In the full data, 503 (2.4%) are marked active. 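Raw plate light values, not normalised; calls rest on replicate z-scores that were not deposited; hits include reporter decreases as well as increases.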 Reagents against one gene are numbered here. Not stated in the record: the amount of reagent, the time to read-out.

gene	dsRNA no.	firefly Hh reporter signal, replicate 1	firefly Hh reporter signal, replicate 2	firefly Hh reporter signal, replicate 3	Renilla reference signal, replicate 1	Renilla reference signal, replicate 2	activity call
obst-H (obstructor-H)	1	2.20e5			7920	6260	inactive
obst-H (obstructor-H)	2	1.90e5			7760	5280	inactive
vanin-like	1	5.15e5	1.95e5		28704	3804	inactive
CG15553	1	1.03e5	1.42e5		3626	3888	inactive
sub (subito)	1	55706	54902		3536	2665	inactive
Tpc1	1	41169	81752		1984	3325	inactive
Tpc1	2	1.06e5	78500		4406	2519	inactive
Blm (Bloom syndrome helicase)	1	1.47e5	89317		6505	3724	inactive
aus (argus)	1	50123	1.54e5		11220	4551	inactive
aus (argus)	2	57627	1.97e5		13817	5684	inactive
aus (argus)	3	72841	92081		3377	3814	inactive
CG31517	1	1971	2.22e5		375	4304	inactive
CG9757	1	1.42e5	1.04e5		4525	2896	inactive
Herc4 (HECT and RLD domain containing E3 ubiquitin ligase 4)	1	91644	42240		3216	3284	inactive
CG3704	1	1.18e5	2.03e5		4528	8091	inactive
CG3704	2	1.54e5	3.30e5		5542	11253	inactive
CG9500	1	1.21e5	33299		2784	2944	inactive
nxf4 (nuclear export factor 4)	1	64183	87532		2556	2650	inactive
CG11899	1	98298	91064		2128	2714	inactive
ocn (ocnus)	1	1.04e5	1.26e5		4123	4233	inactive
CG32264	1	50695	1.08e5		2032	6441	active
CG32264	2	65908	52116		2040	3813	inactive
CG32264	3	72498	85031		3338	3192	inactive
CG32264	4	1.27e5	5.50e5	66886	3604	31364	inactive
CG32264	5	37268	22499		1442	1650	inactive
